{"source": "paper PMC11898529", "about": "“The LSmAD Domain of Ataxin-2 Modulates the Structure and RNA Binding of Its Preceding LSm Domain”", "biological_target": "T1, LSm domain of Ataxin-2 (UniProt Q99700)", "T1 sequence (looked up)": "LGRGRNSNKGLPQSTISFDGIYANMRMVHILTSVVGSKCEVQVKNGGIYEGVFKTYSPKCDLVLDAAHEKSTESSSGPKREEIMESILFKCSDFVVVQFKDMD", "assay": "EMSA", "details": "0.8 uM RNA, LSm/RNA ratio 0-20, 1 mM MgCl2; EMSA: 10 mM Tris pH 8.0, 25 mM KCl, 10 mM NaCl, 1 mM MgCl2, 10% glycerol, 0.5 mM DTT, 20 min, 25 C; recombinant protein; residues 242-344; letters put together from the description", "note": "Construct, isoform or probe ends are uncertain for at least one entry. At least one verdict was read from the data and is not stated in words by the source. Where a protein sequence is shown, tags need not be part of it.", "data": [{"sequence": "GGCCUUCGGGCCAAAUUUUUAUUUUUAUUUUUAUUUUUAUUUUUUCGAUCCGGUUCGCCGGAUCCAAAUCGGGCUUCGGUCCGGUUC [AU-rich RNA]", "values": [{"measurement": "binding result", "result": "binds"}]}]}
